Results reported in the supplement of paper PMC10849652.
This is one part of the list.

The chains behind the UniProt entries cited, without tags or fusion partners. Where a name states a change or a piece, a line headed by the entry shows the natural chain unless it says otherwise.
UniProt Q03933: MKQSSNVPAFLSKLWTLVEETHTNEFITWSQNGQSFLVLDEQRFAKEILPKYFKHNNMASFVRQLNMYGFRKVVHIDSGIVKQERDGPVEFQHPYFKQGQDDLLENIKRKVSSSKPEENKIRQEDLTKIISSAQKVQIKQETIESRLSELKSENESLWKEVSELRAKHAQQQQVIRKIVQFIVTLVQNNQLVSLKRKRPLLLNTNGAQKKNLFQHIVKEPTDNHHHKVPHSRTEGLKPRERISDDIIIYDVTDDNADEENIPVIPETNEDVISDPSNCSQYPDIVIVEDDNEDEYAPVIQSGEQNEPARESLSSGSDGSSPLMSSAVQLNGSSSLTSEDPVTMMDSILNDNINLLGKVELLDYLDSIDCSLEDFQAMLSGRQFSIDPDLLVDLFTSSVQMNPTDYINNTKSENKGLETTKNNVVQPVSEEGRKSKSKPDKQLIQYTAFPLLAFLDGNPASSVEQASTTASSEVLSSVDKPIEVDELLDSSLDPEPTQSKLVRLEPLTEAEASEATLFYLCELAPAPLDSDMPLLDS
UniProt P17483: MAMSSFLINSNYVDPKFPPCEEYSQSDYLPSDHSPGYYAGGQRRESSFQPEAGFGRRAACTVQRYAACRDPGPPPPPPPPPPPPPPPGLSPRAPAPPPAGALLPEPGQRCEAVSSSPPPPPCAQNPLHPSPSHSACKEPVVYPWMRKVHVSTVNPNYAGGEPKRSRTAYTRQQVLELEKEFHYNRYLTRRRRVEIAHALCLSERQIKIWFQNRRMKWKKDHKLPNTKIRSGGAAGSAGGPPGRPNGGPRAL
UniProt Q15011: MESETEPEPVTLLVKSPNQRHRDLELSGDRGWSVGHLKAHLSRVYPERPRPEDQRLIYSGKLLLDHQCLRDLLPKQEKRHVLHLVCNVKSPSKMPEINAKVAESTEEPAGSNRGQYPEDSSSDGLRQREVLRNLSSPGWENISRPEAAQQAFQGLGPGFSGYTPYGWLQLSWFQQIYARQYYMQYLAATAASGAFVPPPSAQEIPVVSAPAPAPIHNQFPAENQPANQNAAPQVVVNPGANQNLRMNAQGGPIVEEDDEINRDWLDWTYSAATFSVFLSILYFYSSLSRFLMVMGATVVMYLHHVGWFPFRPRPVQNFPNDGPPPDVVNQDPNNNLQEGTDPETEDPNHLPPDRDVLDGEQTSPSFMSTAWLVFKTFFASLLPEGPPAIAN
UniProt P13747, whole entry, looked up: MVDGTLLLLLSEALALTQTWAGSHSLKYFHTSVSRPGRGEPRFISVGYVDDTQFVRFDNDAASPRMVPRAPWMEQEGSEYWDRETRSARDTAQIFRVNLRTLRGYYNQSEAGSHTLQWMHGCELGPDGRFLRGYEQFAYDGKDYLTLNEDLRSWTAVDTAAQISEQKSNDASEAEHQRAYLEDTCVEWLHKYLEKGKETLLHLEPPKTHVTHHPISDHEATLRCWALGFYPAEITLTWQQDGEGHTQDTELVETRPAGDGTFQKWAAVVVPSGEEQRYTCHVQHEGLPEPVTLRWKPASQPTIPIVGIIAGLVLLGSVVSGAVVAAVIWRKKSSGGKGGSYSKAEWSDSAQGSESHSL
UniProt Q9UJC3, whole entry, looked up: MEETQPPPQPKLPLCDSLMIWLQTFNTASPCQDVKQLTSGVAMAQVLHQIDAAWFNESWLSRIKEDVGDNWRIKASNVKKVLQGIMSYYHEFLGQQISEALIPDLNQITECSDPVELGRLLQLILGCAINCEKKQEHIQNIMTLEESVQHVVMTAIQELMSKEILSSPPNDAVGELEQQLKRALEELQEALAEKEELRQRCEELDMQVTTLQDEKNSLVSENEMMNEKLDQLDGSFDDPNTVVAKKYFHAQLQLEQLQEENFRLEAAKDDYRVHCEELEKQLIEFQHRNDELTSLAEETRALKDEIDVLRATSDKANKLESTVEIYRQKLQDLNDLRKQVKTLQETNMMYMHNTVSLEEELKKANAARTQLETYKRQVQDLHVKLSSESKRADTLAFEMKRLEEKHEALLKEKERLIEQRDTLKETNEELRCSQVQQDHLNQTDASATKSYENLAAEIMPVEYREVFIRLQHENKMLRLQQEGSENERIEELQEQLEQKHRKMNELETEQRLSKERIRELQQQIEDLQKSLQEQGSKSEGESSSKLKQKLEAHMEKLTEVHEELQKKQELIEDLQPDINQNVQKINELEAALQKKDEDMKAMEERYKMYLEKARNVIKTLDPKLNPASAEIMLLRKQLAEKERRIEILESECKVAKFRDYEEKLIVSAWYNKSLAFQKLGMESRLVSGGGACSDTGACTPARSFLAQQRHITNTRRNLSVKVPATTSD
UniProt Q9Y241: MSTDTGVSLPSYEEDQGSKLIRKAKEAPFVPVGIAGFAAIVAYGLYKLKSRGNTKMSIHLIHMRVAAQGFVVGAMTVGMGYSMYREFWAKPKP
UniProt Q15651: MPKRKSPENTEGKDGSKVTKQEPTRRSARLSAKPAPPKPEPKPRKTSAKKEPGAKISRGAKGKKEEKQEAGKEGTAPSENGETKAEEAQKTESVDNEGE
UniProt Q96ED9: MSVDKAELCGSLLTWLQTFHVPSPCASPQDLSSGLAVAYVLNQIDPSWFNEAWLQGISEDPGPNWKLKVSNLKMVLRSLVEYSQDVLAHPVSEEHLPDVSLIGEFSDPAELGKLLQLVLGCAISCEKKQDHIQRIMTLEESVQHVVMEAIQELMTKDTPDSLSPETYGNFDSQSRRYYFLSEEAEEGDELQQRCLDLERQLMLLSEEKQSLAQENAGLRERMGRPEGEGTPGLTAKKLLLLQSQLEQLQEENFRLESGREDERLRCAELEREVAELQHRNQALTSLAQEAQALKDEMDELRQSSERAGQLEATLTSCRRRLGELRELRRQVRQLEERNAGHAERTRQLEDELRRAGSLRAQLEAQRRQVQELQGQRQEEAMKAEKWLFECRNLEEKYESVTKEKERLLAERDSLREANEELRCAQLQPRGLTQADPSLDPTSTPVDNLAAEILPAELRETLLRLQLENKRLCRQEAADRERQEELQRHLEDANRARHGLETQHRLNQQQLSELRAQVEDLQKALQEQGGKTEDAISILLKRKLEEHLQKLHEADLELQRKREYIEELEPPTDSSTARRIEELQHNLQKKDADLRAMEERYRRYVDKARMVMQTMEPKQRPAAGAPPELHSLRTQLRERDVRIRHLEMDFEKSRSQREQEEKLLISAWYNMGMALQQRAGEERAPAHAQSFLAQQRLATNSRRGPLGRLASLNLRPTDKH
UniProt Q14469: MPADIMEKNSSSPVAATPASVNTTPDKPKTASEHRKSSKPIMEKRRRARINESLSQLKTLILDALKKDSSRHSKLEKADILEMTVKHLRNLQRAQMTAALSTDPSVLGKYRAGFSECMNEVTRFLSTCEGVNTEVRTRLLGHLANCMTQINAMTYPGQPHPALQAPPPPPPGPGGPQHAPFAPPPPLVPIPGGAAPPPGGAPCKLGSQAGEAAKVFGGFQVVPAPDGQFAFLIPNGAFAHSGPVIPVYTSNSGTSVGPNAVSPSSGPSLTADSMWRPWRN
UniProt A6NHT5: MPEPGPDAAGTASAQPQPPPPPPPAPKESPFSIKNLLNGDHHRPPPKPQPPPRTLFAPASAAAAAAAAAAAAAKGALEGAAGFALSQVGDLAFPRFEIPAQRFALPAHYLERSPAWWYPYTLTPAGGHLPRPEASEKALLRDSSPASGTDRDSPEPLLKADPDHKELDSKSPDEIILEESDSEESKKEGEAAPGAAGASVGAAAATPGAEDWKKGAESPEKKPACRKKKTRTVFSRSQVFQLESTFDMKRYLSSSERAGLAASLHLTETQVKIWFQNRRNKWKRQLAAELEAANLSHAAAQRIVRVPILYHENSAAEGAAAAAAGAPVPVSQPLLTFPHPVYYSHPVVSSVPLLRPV
UniProt Q5SSJ5: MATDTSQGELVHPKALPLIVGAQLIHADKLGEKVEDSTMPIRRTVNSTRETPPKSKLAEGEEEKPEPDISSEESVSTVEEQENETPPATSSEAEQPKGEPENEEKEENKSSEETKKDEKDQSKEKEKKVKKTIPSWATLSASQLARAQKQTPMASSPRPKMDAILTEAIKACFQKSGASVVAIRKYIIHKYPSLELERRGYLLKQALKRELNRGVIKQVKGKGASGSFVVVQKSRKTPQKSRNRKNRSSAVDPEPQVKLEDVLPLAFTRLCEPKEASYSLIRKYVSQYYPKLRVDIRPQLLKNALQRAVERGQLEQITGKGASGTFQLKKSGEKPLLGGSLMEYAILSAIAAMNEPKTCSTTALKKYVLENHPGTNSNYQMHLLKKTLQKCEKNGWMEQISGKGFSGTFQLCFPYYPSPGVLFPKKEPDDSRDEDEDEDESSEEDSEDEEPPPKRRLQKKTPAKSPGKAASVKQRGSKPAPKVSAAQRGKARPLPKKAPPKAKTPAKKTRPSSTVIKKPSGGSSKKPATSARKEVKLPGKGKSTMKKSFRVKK
UniProt Q9NRZ9: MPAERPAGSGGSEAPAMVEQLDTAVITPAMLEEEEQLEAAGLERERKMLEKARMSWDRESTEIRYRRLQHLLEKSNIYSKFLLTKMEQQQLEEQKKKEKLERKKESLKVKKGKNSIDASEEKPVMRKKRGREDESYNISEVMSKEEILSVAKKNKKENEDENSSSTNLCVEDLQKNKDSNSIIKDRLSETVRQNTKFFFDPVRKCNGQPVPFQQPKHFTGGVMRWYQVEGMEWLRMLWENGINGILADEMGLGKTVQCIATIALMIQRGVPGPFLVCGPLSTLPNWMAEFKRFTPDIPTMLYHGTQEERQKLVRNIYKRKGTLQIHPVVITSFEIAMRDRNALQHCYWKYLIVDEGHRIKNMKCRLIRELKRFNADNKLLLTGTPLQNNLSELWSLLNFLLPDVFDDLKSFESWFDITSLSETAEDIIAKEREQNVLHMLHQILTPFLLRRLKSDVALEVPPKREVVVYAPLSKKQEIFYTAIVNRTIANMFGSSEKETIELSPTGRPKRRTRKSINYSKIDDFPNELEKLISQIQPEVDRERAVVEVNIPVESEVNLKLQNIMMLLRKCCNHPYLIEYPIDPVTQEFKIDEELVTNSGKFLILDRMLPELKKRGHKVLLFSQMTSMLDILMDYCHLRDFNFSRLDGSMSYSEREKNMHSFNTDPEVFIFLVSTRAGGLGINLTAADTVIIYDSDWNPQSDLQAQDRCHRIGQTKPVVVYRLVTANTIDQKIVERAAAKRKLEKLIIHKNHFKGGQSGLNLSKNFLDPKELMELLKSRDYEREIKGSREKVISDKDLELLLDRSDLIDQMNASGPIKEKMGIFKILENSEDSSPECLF
UniProt P50135: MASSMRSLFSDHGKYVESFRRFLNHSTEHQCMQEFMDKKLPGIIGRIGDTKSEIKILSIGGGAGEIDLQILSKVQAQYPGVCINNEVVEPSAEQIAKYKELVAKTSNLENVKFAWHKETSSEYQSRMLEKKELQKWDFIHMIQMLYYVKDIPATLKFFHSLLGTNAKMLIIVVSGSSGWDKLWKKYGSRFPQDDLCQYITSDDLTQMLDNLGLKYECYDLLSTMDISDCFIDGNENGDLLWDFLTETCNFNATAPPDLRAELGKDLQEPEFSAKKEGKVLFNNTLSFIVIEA
UniProt Q96MH2: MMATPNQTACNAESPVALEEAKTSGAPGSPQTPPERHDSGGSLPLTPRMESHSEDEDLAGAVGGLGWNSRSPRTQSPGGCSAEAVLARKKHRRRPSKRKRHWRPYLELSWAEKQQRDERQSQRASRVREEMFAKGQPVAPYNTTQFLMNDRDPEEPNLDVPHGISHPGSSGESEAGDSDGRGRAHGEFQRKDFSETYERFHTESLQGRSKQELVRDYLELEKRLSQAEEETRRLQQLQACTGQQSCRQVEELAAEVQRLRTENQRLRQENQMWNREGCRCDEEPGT
UniProt P17096: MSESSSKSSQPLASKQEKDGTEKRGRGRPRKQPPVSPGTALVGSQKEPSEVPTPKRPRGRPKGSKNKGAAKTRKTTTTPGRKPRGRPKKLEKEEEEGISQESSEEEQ
UniProt O60243: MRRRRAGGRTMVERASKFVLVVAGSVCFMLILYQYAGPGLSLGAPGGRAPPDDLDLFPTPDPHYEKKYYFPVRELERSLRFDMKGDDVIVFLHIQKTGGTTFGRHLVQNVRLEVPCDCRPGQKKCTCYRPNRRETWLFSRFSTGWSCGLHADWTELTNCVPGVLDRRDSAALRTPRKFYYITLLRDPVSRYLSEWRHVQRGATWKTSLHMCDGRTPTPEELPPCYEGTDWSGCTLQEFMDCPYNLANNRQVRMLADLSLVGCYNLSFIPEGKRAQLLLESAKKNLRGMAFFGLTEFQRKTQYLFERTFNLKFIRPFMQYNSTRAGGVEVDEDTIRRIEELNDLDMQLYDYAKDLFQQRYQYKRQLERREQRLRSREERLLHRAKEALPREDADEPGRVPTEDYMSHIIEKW

These targets were tested with NCC(=O)Nc1ccc(-n2nc(C(F)(F)F)cc2-c2ccc3c(ccc4ccccc43)c2)cc1 (assay: log2 fold change, soluble protein after heating vs DMSO (PISA); higher = thermal stabilisation; K562 lysate, 10 uM; active = over 0.2 and 3.5 SD of the protein, either way, in both replicates (recomputed)).
Procedure, shortened: (§1)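 Quantification was by TMTpro 16plex LC-MS/MS with equalised channel sums, applied to the supernatant after 21,000xg for 90 min. Samples were crude K562 extract at 1 mg/mL protein in PBS pH 7.4 with 1 mM MgCl2, treated with 10 μM compound for 30 min, heated for 3 min across 48°C-58°C, pooled and brought to 0.5% NP-40 at 4°C. Values are log-two fold changes in thermal stability relative to solvent controls, from duplicates.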

Row | Target | log2 fold change
1 | HSF2 (UniProt Q03933) | inactive: 0.028
2 | HOXB4 (UniProt P17483) | inactive: 0.068
3 | HERPUD1 (UniProt Q15011) | inactive: -0.064
4 | HNRNPM (UniProt M0QZM1) | inactive: 0.125

The targets below were run with O=C(CCCCCCC(=O)Nc1ccccc1)NO [vorinostat] in the same assay as above.
Procedure, shortened: as §1

Row | Target | log2 fold change
5 | HLA-E (UniProt P13747) | inactive: -0.086
6 | HOOK1 (UniProt Q9UJC3) | inactive: 0.131
7 | HIGD1A isoform 2 (UniProt Q9Y241) | inactive: 0.064
8 | HMGN3 (UniProt Q15651) | inactive: 0.143
9 | HOOK2 (UniProt Q96ED9) | inactive: -0.008
10 | HES1 (UniProt Q14469) | inactive: 0.046
11 | HMX3 (UniProt A6NHT5) | inactive: -0.257
12 | HP1BP3 isoform 5 (UniProt Q5SSJ5) | inactive: 0.053
13 | HRAS (UniProt P01112) | inactive: 0.026
14 | HGF (UniProt P14210) | inactive: -0.315
15 | HELLS (UniProt Q9NRZ9) | inactive: -0.138
16 | HNMT (UniProt P50135) | inactive: -0.09
17 | HEXIM2 (UniProt Q96MH2) | inactive: 0.065
18 | HMGA1 isoform 2 (UniProt P17096) | inactive: 0.205
19 | HNRNPUL1 (UniProt M0R247) | inactive: 0.197
20 | HS6ST1 (UniProt O60243) | inactive: -0.025

Each target was assayed with O=C(O)c1ccc2c(c1)nc(Nc1cccc(Cl)c1)c1ccncc12 [silmitasertib] in the same assay as above.
Procedure, shortened: as §1

Row | Target | log2 fold change
21 | HLA-E (UniProt P13747) | inactive: 0.109
22 | HOOK1 (UniProt Q9UJC3) | inactive: -0.066
23 | HIGD1A isoform 2 (UniProt Q9Y241) | inactive: 0.006
24 | HMGN3 (UniProt Q15651) | inactive: -0.143
25 | HOOK2 (UniProt Q96ED9) | inactive: -0.068
26 | HES1 (UniProt Q14469) | inactive: 0.18
27 | HMX3 (UniProt A6NHT5) | inactive: -0.125
28 | HP1BP3 isoform 5 (UniProt Q5SSJ5) | inactive: 0.064
29 | HRAS (UniProt P01112) | inactive: -0.008
30 | HGF (UniProt P14210) | inactive: 0.163
31 | HELLS (UniProt Q9NRZ9) | inactive: -0.029
32 | HNMT (UniProt P50135) | inactive: 0.122
33 | HEXIM2 (UniProt Q96MH2) | inactive: -0.091
34 | HMGA1 isoform 2 (UniProt P17096) | inactive: -0.047
35 | HNRNPUL1 (UniProt M0R247) | inactive: -0.037
36 | HS6ST1 (UniProt O60243) | inactive: 0.203
